PubChem BioAssay AID1508588 – Peter MacCallum Cancer Centre | 2020
Shown is a random part of about 18,000 reagents tested. Of all reagents, 790 (4.4%) were called active. 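Calls rest on a combination of fold-change classes in drug and vehicle arms, not all shown here.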

- Purpose: 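Knock-downs boosting vemurafenib effects on melanoma cell growth or lactate release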 (primary screen)
- System: human WM266.4 melanoma cells (BRAF V600 mutant)
- Reagents: siRNA pool against human genes, 40 nM
- Timing: 96 h from transfection to read-out
- Treatment: vemurafenib 300 nM (about IC25), added 48 h after transfection, for 48 h; comparison arm got DMSO vehicle only
- Measured: 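Cell gain (DAPI nuclei at end minus before drug, mean of two replicates) and medium lactate by absorbance per cell, both as ratio to non-targeting siRNA, also grouped into fold-change classes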
- Direction: cell gain with vemurafenib: higher = more cell gain than with non-targeting siRNA; lactate per cell with vemurafenib: higher = more lactate made per cell
- Rule for the call: 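Enhancement is called by pairing each knock-down's vehicle-arm and drug-arm fold-change classes for viability or glycolysis; which class combinations qualify is not given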
- Meaning of the calls: active = enhances vemurafenib effect; inactive = no enhancement seen

{"gene symbol":"SPANXC","cell gain with vemurafenib":-0.11,"lactate per cell with vemurafenib":3.34,"call":"inactive"}
{"gene symbol":"PRADC1","cell gain with vemurafenib":0.66,"lactate per cell with vemurafenib":1.56,"call":"inactive"}
{"gene symbol":"GDPD5","cell gain with vemurafenib":0.24,"lactate per cell with vemurafenib":1.12,"call":"inactive"}
{"gene symbol":"ZNF221","cell gain with vemurafenib":0.8,"lactate per cell with vemurafenib":0.71,"call":"inactive"}
{"gene symbol":"TNFSF14","cell gain with vemurafenib":1.29,"lactate per cell with vemurafenib":0.88,"call":"inactive"}
{"gene symbol":"TIGD6","cell gain with vemurafenib":0.8,"lactate per cell with vemurafenib":1.43,"call":"inactive"}
{"gene symbol":"PLEKHM1P1","cell gain with vemurafenib":0.21,"lactate per cell with vemurafenib":2.13,"call":"inactive"}
{"gene symbol":"ETNPPL","cell gain with vemurafenib":0.32,"lactate per cell with vemurafenib":1.2,"call":"inactive"}
{"gene symbol":"DIPK2A","cell gain with vemurafenib":0.91,"lactate per cell with vemurafenib":0.53,"call":"inactive"}
{"gene symbol":"ZNF606","cell gain with vemurafenib":1.11,"lactate per cell with vemurafenib":0.3,"call":"inactive"}
{"gene symbol":"ABLIM2","cell gain with vemurafenib":0.17,"lactate per cell with vemurafenib":2.45,"call":"inactive"}
{"gene symbol":"YPEL1","cell gain with vemurafenib":0.74,"lactate per cell with vemurafenib":0.64,"call":"inactive"}
{"gene symbol":"ARPP19","cell gain with vemurafenib":0.71,"lactate per cell with vemurafenib":1.15,"call":"inactive"}
{"gene symbol":"BLOC1S2","cell gain with vemurafenib":0.67,"lactate per cell with vemurafenib":0.46,"call":"inactive"}
{"gene symbol":"PSG7","cell gain with vemurafenib":0.71,"lactate per cell with vemurafenib":0.8,"call":"inactive"}
{"gene symbol":"TRAPPC2","cell gain with vemurafenib":0.66,"lactate per cell with vemurafenib":0.59,"call":"active"}
{"gene symbol":"PCDHB4","cell gain with vemurafenib":1.07,"lactate per cell with vemurafenib":0.93,"call":"inactive"}
{"gene symbol":"VASN","cell gain with vemurafenib":0.59,"lactate per cell with vemurafenib":0.89,"call":"inactive"}
{"gene symbol":"COQ7","cell gain with vemurafenib":0.68,"lactate per cell with vemurafenib":1.43,"call":"inactive"}
{"gene symbol":"UBA7","cell gain with vemurafenib":0.49,"lactate per cell with vemurafenib":1.18,"call":"inactive"}
{"gene symbol":"CEP57","cell gain with vemurafenib":0.5,"lactate per cell with vemurafenib":0.62,"call":"inactive"}
{"gene symbol":"ASAH2B","cell gain with vemurafenib":0.33,"lactate per cell with vemurafenib":0.46,"call":"inactive"}
{"gene symbol":"BDP1","cell gain with vemurafenib":0.44,"lactate per cell with vemurafenib":0.7,"call":"inactive"}
{"gene symbol":"ZNF227","cell gain with vemurafenib":0.97,"lactate per cell with vemurafenib":1.02,"call":"inactive"}
{"gene symbol":"CABIN1","cell gain with vemurafenib":0.53,"lactate per cell with vemurafenib":0.92,"call":"inactive"}
{"gene symbol":"KRTAP12-1","cell gain with vemurafenib":1.08,"lactate per cell with vemurafenib":0.4,"call":"inactive"}
{"gene symbol":"SERINC1","cell gain with vemurafenib":1.01,"lactate per cell with vemurafenib":0.74,"call":"inactive"}
{"gene symbol":"CNP","cell gain with vemurafenib":0.48,"lactate per cell with vemurafenib":0.78,"call":"inactive"}
{"gene symbol":"PRR35","cell gain with vemurafenib":0.66,"lactate per cell with vemurafenib":1.71,"call":"inactive"}
{"gene symbol":"STK25","cell gain with vemurafenib":0.29,"lactate per cell with vemurafenib":0.62,"call":"inactive"}
{"gene symbol":"NFS1","cell gain with vemurafenib":0.28,"lactate per cell with vemurafenib":1.08,"call":"inactive"}
{"gene symbol":"ABCB9","cell gain with vemurafenib":0.59,"lactate per cell with vemurafenib":0.54,"call":"inactive"}
{"gene symbol":"ZNF436","cell gain with vemurafenib":0.73,"lactate per cell with vemurafenib":0.6,"call":"inactive"}
{"gene symbol":"SPATA21","cell gain with vemurafenib":0.36,"lactate per cell with vemurafenib":2.5,"call":"inactive"}
{"gene symbol":"LILRA6","cell gain with vemurafenib":0.86,"lactate per cell with vemurafenib":0.62,"call":"inactive"}
{"gene symbol":"NXF1","cell gain with vemurafenib":0.28,"lactate per cell with vemurafenib":1.66,"call":"inactive"}
{"gene symbol":"ANO10","cell gain with vemurafenib":0.43,"lactate per cell with vemurafenib":0.66,"call":"inactive"}
{"gene symbol":"CLRN3","cell gain with vemurafenib":0.85,"lactate per cell with vemurafenib":0.52,"call":"inactive"}
{"gene symbol":"FOXB2","cell gain with vemurafenib":0.48,"lactate per cell with vemurafenib":0.86,"call":"inactive"}
{"gene symbol":"TMEFF1","cell gain with vemurafenib":0.59,"lactate per cell with vemurafenib":0.87,"call":"inactive"}
{"gene symbol":"SH3PXD2B","cell gain with vemurafenib":1.22,"lactate per cell with vemurafenib":1.12,"call":"inactive"}
{"gene symbol":"C19orf47","cell gain with vemurafenib":0.18,"lactate per cell with vemurafenib":0.42,"call":"active"}
{"gene symbol":"MAX","cell gain with vemurafenib":0.8,"lactate per cell with vemurafenib":0.67,"call":"inactive"}
{"gene symbol":"OR4C46","cell gain with vemurafenib":0.32,"lactate per cell with vemurafenib":1.81,"call":"inactive"}
{"gene symbol":"FOXI1","cell gain with vemurafenib":0.88,"lactate per cell with vemurafenib":0.88,"call":"inactive"}
{"gene symbol":"ZNF625","cell gain with vemurafenib":0.69,"lactate per cell with vemurafenib":1.04,"call":"inactive"}
{"gene symbol":"QKI","cell gain with vemurafenib":0.35,"lactate per cell with vemurafenib":1.04,"call":"inactive"}
{"gene symbol":"LYPD6","cell gain with vemurafenib":1.2,"lactate per cell with vemurafenib":0.48,"call":"inactive"}
{"gene symbol":"LARP7","cell gain with vemurafenib":0.36,"lactate per cell with vemurafenib":1.41,"call":"inactive"}
{"gene symbol":"PAGE2B","cell gain with vemurafenib":0.96,"lactate per cell with vemurafenib":0.28,"call":"inactive"}
{"gene symbol":"CLDN9","cell gain with vemurafenib":0.61,"lactate per cell with vemurafenib":1.32,"call":"inactive"}
{"gene symbol":"ZNF44","cell gain with vemurafenib":1.01,"lactate per cell with vemurafenib":0.54,"call":"inactive"}

Called active (from the list above):
{"gene symbol":"TRAPPC2","cell gain with vemurafenib":0.66,"lactate per cell with vemurafenib":0.59,"call":"active"}
{"gene symbol":"C19orf47","cell gain with vemurafenib":0.18,"lactate per cell with vemurafenib":0.42,"call":"active"}
